Assay results from the supplement of paper PMC10849652.
This is one part of the list.

Sequences of proteins named here, by UniProt entry; tags and fusion partners are left off. A change or cut given only in a name is not applied to a line headed by its entry.
UniProt O43502: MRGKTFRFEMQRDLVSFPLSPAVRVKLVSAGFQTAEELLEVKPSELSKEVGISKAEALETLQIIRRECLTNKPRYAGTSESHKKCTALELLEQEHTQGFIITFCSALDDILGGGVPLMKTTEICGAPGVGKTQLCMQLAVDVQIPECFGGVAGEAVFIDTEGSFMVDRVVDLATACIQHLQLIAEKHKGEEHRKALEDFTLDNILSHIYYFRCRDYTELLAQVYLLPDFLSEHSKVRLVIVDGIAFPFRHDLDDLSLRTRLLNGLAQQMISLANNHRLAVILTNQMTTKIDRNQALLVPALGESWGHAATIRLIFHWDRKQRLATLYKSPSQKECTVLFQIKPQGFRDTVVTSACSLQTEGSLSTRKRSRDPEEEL
UniProt P20339: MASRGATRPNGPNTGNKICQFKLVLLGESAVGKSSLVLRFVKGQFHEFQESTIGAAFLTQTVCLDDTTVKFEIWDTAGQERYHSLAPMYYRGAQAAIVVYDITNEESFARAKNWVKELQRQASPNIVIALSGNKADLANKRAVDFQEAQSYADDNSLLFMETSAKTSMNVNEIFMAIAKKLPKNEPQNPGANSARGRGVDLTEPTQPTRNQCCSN
UniProt Q96B01: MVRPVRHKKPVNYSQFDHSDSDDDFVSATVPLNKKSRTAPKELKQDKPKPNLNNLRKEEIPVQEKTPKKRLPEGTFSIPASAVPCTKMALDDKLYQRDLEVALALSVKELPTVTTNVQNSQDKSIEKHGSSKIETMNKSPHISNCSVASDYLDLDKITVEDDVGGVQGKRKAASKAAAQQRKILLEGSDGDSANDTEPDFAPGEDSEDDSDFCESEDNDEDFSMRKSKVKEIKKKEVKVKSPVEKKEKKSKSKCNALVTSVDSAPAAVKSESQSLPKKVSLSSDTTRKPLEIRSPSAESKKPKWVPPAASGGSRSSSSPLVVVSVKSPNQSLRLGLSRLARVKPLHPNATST
UniProt Q8WWW0: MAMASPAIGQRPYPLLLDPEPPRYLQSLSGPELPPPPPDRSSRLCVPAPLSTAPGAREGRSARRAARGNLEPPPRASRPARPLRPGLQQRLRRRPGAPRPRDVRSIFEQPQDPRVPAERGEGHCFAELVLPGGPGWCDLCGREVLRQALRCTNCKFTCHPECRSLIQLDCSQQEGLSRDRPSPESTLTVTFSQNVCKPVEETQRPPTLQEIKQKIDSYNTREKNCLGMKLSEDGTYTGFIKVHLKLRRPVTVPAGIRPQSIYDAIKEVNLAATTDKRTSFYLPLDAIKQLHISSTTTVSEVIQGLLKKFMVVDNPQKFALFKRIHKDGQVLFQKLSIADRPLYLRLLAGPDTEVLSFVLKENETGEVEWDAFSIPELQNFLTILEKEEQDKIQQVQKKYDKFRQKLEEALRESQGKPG
UniProt Q99638: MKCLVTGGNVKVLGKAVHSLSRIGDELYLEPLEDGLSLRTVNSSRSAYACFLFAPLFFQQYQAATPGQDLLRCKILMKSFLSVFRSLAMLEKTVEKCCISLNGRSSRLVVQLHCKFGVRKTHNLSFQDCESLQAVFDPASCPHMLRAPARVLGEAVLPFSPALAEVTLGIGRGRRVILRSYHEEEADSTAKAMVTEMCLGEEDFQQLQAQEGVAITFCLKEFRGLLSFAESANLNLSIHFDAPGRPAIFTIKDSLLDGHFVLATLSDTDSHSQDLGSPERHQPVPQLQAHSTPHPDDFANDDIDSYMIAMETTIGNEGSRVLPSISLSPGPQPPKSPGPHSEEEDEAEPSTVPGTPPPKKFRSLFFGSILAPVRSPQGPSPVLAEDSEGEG
UniProt Q9P0K7: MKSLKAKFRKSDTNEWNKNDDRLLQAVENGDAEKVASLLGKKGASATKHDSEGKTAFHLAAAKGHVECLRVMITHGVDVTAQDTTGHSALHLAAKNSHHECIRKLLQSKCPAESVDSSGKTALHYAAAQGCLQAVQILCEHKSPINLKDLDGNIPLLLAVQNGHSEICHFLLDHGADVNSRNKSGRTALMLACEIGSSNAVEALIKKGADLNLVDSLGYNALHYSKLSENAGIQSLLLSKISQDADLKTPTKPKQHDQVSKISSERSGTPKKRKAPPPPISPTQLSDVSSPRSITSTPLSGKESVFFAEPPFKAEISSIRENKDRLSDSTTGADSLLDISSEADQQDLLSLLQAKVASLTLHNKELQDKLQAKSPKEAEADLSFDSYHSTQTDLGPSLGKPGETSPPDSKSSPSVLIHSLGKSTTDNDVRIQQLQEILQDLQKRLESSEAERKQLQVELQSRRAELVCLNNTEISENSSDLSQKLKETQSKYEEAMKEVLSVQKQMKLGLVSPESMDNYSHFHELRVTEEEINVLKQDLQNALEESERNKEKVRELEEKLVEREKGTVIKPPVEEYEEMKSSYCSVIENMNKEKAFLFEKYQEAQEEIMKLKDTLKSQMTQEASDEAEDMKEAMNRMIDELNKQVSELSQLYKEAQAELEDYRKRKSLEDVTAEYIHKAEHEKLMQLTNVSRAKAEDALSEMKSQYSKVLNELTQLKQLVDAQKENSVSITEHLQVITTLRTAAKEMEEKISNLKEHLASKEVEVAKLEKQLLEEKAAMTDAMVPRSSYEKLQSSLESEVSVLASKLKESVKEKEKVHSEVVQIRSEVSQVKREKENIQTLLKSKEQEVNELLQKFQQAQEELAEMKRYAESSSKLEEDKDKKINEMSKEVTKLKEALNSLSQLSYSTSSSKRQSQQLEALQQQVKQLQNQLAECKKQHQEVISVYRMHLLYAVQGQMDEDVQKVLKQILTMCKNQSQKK
UniProt P47224: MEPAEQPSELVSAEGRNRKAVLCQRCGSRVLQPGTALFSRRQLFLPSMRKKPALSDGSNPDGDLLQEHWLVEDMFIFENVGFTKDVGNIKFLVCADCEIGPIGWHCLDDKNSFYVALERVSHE
UniProt Q92696: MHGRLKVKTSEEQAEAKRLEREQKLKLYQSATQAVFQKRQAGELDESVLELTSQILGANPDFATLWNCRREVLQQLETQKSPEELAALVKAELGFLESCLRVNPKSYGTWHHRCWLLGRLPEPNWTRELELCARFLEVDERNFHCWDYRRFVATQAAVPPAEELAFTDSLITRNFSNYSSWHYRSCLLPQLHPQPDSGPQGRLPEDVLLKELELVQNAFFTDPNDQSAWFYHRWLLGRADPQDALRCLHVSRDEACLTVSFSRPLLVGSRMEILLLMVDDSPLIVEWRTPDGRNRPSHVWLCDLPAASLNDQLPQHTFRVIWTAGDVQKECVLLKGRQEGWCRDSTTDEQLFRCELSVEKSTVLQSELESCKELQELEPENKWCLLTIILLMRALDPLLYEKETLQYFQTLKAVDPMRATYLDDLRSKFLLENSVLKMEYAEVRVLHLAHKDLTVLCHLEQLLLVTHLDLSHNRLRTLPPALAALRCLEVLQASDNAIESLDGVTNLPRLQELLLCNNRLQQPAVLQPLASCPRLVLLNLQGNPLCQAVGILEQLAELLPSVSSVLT
UniProt P61020: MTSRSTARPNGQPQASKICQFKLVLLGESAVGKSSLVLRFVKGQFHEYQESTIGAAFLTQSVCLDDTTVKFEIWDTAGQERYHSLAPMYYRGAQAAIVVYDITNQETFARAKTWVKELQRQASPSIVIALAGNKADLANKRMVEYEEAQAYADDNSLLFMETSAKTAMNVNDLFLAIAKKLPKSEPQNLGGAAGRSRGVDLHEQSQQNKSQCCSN
UniProt Q16576, whole entry, looked up: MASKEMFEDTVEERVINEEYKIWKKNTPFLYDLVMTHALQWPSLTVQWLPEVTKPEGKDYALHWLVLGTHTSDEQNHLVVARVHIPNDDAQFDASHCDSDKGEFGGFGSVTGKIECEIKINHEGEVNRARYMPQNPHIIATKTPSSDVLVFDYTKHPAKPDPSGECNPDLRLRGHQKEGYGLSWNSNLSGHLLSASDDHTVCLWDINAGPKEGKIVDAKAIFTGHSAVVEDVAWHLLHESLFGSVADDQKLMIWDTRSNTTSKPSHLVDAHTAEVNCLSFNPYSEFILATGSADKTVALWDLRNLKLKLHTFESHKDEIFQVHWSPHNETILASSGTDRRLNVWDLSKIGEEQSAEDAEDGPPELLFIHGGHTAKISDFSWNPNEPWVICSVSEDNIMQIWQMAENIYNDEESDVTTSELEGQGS
UniProt P54727: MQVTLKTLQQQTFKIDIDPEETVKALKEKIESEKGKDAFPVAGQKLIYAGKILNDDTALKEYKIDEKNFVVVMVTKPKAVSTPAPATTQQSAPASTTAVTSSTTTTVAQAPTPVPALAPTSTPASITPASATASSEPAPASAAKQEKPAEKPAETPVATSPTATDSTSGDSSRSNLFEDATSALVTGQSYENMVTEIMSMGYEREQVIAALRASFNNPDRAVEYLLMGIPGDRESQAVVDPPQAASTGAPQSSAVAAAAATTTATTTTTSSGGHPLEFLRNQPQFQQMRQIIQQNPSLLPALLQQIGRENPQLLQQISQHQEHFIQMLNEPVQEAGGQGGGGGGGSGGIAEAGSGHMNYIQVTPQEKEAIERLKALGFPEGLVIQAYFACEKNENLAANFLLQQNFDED
UniProt O14966: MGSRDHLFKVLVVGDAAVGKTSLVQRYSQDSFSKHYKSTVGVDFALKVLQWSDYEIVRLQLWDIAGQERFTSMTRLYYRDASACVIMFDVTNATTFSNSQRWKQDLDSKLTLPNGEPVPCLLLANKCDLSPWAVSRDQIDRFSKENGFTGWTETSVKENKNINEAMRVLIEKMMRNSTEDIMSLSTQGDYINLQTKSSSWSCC
UniProt Q9Y3P9: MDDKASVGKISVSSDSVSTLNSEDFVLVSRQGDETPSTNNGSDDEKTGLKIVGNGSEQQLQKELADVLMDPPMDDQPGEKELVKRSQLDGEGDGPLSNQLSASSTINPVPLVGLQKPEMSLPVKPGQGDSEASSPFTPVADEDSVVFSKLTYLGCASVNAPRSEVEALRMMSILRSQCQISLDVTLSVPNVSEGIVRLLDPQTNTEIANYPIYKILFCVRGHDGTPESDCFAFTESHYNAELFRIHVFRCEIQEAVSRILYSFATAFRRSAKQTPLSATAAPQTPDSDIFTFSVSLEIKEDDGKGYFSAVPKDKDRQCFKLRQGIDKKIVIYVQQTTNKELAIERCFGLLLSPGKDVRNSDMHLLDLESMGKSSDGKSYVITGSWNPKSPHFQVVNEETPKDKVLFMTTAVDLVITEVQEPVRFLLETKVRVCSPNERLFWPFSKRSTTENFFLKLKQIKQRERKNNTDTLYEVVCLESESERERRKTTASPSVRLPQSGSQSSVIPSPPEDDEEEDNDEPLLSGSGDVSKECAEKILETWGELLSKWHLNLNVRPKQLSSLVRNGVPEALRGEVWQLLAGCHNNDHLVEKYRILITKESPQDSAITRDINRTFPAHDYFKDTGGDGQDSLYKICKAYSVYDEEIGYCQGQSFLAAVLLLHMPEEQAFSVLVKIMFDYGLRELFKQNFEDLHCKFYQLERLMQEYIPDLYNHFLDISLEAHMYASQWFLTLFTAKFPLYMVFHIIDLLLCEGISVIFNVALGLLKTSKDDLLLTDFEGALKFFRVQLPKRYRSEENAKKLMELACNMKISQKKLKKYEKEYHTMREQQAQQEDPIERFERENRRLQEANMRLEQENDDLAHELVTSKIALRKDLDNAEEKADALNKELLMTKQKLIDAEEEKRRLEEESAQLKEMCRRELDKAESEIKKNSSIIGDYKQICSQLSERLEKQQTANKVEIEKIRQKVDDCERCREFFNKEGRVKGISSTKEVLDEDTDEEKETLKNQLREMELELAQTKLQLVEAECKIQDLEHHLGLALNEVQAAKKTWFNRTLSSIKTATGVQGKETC
UniProt Q86U06: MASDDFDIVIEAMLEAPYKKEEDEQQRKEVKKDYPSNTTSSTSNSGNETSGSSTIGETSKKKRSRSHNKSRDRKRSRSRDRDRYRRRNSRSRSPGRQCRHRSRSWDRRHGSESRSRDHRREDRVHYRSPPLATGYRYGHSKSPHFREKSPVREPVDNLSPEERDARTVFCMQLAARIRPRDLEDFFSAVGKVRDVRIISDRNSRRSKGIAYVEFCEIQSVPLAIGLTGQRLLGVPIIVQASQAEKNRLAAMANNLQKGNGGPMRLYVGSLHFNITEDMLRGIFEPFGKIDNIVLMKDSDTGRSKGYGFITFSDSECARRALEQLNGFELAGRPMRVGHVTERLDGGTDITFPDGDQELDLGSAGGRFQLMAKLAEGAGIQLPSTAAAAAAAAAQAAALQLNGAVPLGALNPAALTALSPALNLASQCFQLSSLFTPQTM
UniProt P61225: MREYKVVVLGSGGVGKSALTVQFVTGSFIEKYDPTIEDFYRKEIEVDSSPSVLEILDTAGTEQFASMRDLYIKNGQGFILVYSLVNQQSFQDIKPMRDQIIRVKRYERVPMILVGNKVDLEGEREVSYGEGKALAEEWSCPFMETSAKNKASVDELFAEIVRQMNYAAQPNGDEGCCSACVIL
UniProt Q9Y3L5: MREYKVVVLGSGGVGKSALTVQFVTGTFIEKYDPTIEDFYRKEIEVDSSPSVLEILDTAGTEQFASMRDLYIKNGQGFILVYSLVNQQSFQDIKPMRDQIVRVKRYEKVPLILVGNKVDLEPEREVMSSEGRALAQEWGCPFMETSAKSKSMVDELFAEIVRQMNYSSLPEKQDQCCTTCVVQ

Experiments:
Assay in all cases: log2 fold change, soluble protein after heating vs DMSO (PISA); higher = thermal stabilisation; K562 cells, 10 uM, 30 min; active = over 0.2 and 3.5 SD of the protein, either way, in both replicates (recomputed)
[1] = compound: CC1=C(C=C(C=C1)NC(=O)C2=CC(=CC=C2)C(C)(C)C#N)NC3=CC4=C(C=C3)N=CN(C4=O)C
How it was run: (§1)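 K562 cells at 2×10^6 cells/mL were given 10 μM compound for 30 min. Aliquots then went through 3 min of heating across 48°C-58°C, were pooled, and were extracted in PBS with 0.5% NP-40 at 4°C, and the supernatant after 21,000xg for 90 min was quantified by TMTpro 16plex LC-MS/MS with channel sums equalised. Thermal stability relative to control samples, from duplicates, is given as log2 fold change.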

[2] = compound: CC1=C(C=C(C=C1)NC(=O)C2=CC(=CC=C2)N(C)C)NC(=O)C3=CC=C(C=C3)O
How it was run: as §1

[3] = compound: CC1=CC=C(C=C1)SC2=C3C=C(SC3=CN=C2)C(=O)N
How it was run: as §1

[4] = compound: CC1=NC(=CC=C1)C2=C(N=C(N2)C(C)(C)C)C3=CC4=NC=CN=C4C=C3
How it was run: as §1

[5] = compound: CCCCN(Cc1ccc(C(=O)NO)cc1)C(=O)Nc1ccccc1 [Nexturastat A]
How it was run: as §1

[6] = compound: CCCS(=O)(=O)Nc1ccc(F)c(C(=O)c2c[nH]c3ncc(-c4ccc(Cl)cc4)cc23)c1F [vemurafenib]
How it was run: as §1

[7] = compound: CCCS(=O)(=O)Nc1ccc(F)c(C(=O)c2c[nH]c3ncc(Cl)cc23)c1F
How it was run: as §1

[8] = compound: CCCc1cc(C)[nH]c(=O)c1CNC(=O)c1cc(-c2ccnc(N3CCN(C)CC3)c2)cc2c1cnn2C(C)C
How it was run: as §1

[9] = compound: CCN(CC)Cc1ccc2cc(COC(=O)Nc3ccc(C(=O)NO)cc3)ccc2c1 [givinostat]
How it was run: as §1

[10] = compound: CCN(CCCOc1ccc2c(Nc3cc(CC(=O)Nc4cccc(F)c4)[nH]n3)ncnc2c1)CCOP(=O)(O)O [barasertib]
How it was run: as §1

Measured: log2 fold change

RAD51C (UniProt O43502)
inactive: [1] -0.017 | [2] 0.059 | [3] -0.023 | [4] -0.047 | [5] -0.017 | [6] -0.039 | [7] 0.008 | [8] -0.102 | [9] -0.002 | [10] 0.063

RAB5A (UniProt P20339)
inactive: [1] 0.08 | [2] 0.078 | [3] 0.053 | [4] 0.034 | [5] -0.168 | [6] 0.089 | [7] 0.064 | [8] 0.022 | [9] 0.02 | [10] -0.017

RAD51AP1 (UniProt Q96B01)
inactive: [1] -0.079 | [2] 0 | [3] -0.008 | [4] -0.008 | [5] 0.074 | [6] -0.038 | [7] -0.067 | [8] -0.074 | [9] 0.053 | [10] -0.008

RBM10 isoform 5 (UniProt P98175)
inactive: [1] 0.002 | [2] -0.021 | [3] -0.039 | [4] -0.053 | [5] 0.119 | [6] 0.018 | [7] 0 | [8] -0.105 | [9] 0.019 | [10] -0.04

RASSF5 (UniProt Q8WWW0)
inactive: [1] -0.014 | [2] -0.123 | [3] -0.01 | [4] 0.011 | [5] 0.182 | [6] -0.075 | [7] -0.089 | [8] 0.079 | [9] -0.025 | [10] -0.004

RAD50, A0A494C0Y7
inactive: [1] -0.005 | [2] -0.03 | [3] -0.063 | [4] -0.041 | [6] 0.045 | [7] 0 | [8] -0.244 | [10] -0.171

RBM26 isoform 2 (UniProt Q5T8P6)
inactive: [1] 0.122 | [2] -0.088 | [3] 0.033 | [4] 0.116 | [5] -0.184 | [6] 0.143 | [7] 0.09 | [8] -0.014 | [9] 0.097 | [10] 0.079

RAC2 (UniProt P15153)
inactive: [1] 0.103 | [2] -0.001 | [3] -0.043 | [4] 0.002 | [5] -0.102 | [6] -0.008 | [7] -0.043 | [8] 0.134 | [9] -0.068 | [10] -0.015

RAD50 isoform 2 (UniProt Q92878)
inactive: [1] 0 | [2] -0.024 | [3] 0.004 | [4] 0.009 | [5] -0.005 | [6] 0.027 | [7] 0.038 | [8] 0.014 | [9] 0.026 | [10] 0.033

RAD9A (UniProt Q99638)
inactive: [1] -0.013 | [2] 0.029 | [3] 0.072 | [4] 0.029 | [5] -0.023 | [6] 0.034 | [7] -0.01 | [8] -0.052 | [9] -0.024 | [10] -0.007

RAI14 isoform 2 (UniProt Q9P0K7)
inactive: [1] -0.107 | [2] 0 | [3] -0.005 | [5] 0.088 | [6] -0.058 | [7] 0.052 | [8] 0.141 | [9] 0.031 | [10] -0.133

RAB3IL1 (UniProt E9PK89)
inactive: [1] -0.069 | [2] -0.037 | [3] 0 | [4] 0.061 | [5] -0.111 | [6] -0.08 | [7] -0.053 | [9] 0.278 | [10] -0.014

RABIF (UniProt P47224)
inactive: [1] -0.058 | [2] -0.033 | [3] 0.026 | [4] 0.058 | [5] -0.001 | [6] 0.021 | [7] 0.063 | [8] 0.023 | [9] -0.007 | [10] 0.025

RAB27B (UniProt O00194)
inactive: [1] -0.038 | [2] 0.063 | [3] 0.022 | [4] -0.08 | [6] 0.01 | [7] -0.005 | [8] 0.129 | [9] 0.026 | [10] -0.099

RANBP10 (UniProt Q6VN20)
inactive: [1] -0.064 | [2] -0.002 | [3] -0.008 | [4] 0.026 | [5] -0.007 | [6] -0.036 | [7] -0.08 | [8] 0.015 | [9] -0.13 | [10] 0.001

RABGGTA (UniProt Q92696)
inactive: [1] 0.019 | [2] 0.04 | [3] -0.004 | [4] 0.002 | [5] -0.084 | [6] 0.003 | [7] 0.005 | [8] -0.023 | [9] -0.024 | [10] 0.017

RAB5B (UniProt P61020)
inactive: [1] 0.044 | [2] 0.017 | [3] 0.068 | [4] 0.031 | [5] 0.02 | [6] 0.029 | [7] 0.092 | [8] -0.064 | [9] 0.033 | [10] -0.012

Fetched one by one from above, two records:
RABIF (UniProt P47224)
inactive: [1] -0.058 | [2] -0.033 | [3] 0.026 | [4] 0.058 | [5] -0.001 | [6] 0.021 | [7] 0.063 | [8] 0.023 | [9] -0.007 | [10] 0.025

RAB5B (UniProt P61020)
inactive: [1] 0.044 | [2] 0.017 | [3] 0.068 | [4] 0.031 | [5] 0.02 | [6] 0.029 | [7] 0.092 | [8] -0.064 | [9] 0.033 | [10] -0.012

Next part:

RBBP7 (UniProt Q16576)
inactive: [1] 0.051 | [2] -0.003 | [3] 0.002 | [4] -0.117 | [5] 0.007 | [7] 0 | [8] -0.107 | [9] -0.03 | [10] 0.019

RAB6A isoform 2 (UniProt P20340)
inactive: [1] 0.01 | [2] 0.021 | [3] 0.031 | [4] -0.054 | [5] 0.03 | [6] -0.039 | [7] 0.008 | [8] -0.003 | [9] -0.011 | [10] -0.021

RAPGEF5, A0A590UJR0
inactive: [1] -0.068 | [2] 0.094 | [3] 0.399 | [4] 0.041 | [6] -0.428 | [7] -0.517 | [8] -0.036 | [9] -0.017 | [10] 0.084

RACGAP1 (UniProt Q9H0H5)
inactive: [1] -0.035 | [2] -0.072 | [3] -0.023 | [4] -0.085 | [5] -0.07 | [6] 0.082 | [7] 0.012 | [8] 0.066 | [9] 0.03 | [10] 0.021

RANBP6 (UniProt O60518)
inactive: [1] 0.01 | [2] -0.087 | [3] -0.01 | [4] -0.201 | [7] -0.034

RAD23B (UniProt P54727)
inactive: [1] -0.022 | [2] 0.011 | [3] 0.003 | [4] 0.01 | [5] -0.052 | [6] -0.018 | [7] -0.036 | [8] -0.046 | [9] -0.029 | [10] -0.005

RAB29 (UniProt O14966)
inactive: [1] -0.018 | [2] 0.036 | [3] 0.008 | [4] 0.001 | [5] -0.105 | [6] 0.017 | [7] 0.003 | [8] -0.053 | [9] 0.048 | [10] -0.029

RABGAP1 (UniProt Q9Y3P9)
inactive: [1] 0.009 | [2] -0.007 | [3] 0.002 | [4] -0.018 | [5] -0.011 | [6] 0 | [7] 0.023 | [8] 0 | [9] 0.001 | [10] 0.062

RBM23 (UniProt Q86U06)
inactive: [1] -0.059 | [2] 0.194 | [3] -0.513 | [5] 0.072 | [6] 0.175 | [7] 0.268 | [9] -0.038 | [10] 0.024

RAP2B (UniProt P61225)
inactive: [1] 0.075 | [2] 0.018 | [3] -0.009 | [4] 0.01 | [5] -0.074 | [6] -0.02 | [7] -0.001 | [8] 0.018 | [9] -0.001 | [10] -0.034

RAP2C (UniProt Q9Y3L5)
inactive: [1] -0.064 | [2] 0.052 | [3] -0.03 | [5] 0 | [6] 0.066 | [7] -0.13 | [8] -0.052 | [9] -0.044 | [10] -0.031

RAB35 (UniProt Q15286)
inactive: [1] 0.027 | [2] -0.002 | [3] 0.007 | [4] 0.014 | [5] -0.091 | [6] -0.015 | [7] -0.043 | [8] -0.039 | [9] -0.031 | [10] -0.03
